# Results are given in words; binding and its absence hold for the method and conditions named. Binding seen in cells or lysates may run through a third protein. Some results given as binding are weak or reduced against the parent protein; the word gives no strength.
# Sequences of proteins named here, by UniProt entry; tags and fusion partners are left off.
# UniProt Q9P219: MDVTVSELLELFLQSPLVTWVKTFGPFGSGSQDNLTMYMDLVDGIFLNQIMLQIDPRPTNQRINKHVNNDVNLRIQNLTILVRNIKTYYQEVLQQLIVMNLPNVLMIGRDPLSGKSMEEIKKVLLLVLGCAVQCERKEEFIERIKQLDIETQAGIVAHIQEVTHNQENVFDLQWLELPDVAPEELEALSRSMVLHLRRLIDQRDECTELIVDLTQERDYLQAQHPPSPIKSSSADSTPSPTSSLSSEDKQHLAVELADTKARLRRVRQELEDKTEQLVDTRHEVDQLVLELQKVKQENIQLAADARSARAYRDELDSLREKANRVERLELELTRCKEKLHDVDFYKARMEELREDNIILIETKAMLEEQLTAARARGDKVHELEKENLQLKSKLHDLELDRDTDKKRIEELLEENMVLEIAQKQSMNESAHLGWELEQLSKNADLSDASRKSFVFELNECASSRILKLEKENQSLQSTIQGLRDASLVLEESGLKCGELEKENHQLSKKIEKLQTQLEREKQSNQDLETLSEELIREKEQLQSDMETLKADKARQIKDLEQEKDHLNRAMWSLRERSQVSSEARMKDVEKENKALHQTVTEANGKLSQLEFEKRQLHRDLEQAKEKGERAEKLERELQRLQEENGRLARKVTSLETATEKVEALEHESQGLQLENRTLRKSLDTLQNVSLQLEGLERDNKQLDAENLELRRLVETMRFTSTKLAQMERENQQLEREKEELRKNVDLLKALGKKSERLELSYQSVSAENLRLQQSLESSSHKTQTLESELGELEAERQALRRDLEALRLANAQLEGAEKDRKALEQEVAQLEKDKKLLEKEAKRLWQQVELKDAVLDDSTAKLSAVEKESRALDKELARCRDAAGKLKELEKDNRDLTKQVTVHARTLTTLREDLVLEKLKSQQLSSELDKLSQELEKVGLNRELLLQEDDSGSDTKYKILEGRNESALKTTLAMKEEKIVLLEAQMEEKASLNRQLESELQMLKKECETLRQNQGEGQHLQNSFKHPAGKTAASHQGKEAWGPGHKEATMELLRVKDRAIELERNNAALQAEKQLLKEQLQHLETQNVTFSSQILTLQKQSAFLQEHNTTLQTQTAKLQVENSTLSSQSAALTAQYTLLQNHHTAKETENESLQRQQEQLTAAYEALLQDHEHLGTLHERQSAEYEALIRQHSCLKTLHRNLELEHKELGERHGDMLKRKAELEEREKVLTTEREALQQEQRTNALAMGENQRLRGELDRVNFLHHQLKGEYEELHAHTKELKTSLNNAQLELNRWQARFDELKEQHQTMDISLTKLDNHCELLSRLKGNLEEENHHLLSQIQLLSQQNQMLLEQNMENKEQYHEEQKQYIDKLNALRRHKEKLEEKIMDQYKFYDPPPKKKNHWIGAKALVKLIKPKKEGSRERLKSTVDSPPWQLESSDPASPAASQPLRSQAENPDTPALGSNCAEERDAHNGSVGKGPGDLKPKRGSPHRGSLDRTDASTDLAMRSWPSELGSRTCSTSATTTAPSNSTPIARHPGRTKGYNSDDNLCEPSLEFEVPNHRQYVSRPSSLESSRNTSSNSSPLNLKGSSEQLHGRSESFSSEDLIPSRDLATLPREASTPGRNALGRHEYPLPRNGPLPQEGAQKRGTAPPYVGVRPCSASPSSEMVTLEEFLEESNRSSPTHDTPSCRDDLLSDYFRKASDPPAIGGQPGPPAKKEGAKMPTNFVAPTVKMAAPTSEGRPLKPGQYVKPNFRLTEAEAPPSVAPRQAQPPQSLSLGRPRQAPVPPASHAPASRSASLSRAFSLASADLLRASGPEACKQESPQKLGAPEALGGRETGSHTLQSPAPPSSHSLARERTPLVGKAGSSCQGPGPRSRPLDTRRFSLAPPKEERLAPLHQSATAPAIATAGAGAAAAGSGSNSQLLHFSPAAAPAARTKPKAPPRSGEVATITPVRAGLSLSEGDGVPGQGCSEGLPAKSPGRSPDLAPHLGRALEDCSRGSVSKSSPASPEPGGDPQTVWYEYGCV
# B1: polypeptide N-acetylgalactosaminyltransferase 6 (enzyme, UniProt Q8NCL4 1-622)
# chain: MRLLRRRHMPLRLAMVGCAFVLFLFLLHRDVSSREEATEKPWLKSLVSRKDHVLDLMLEAMNNLRDSMPKLQIRAPEAQQTLFSINQSCLPGFYTPAELKPFWERPPQDPNAPGADGKAFQKSKWTPLETQEKEEGYKKHCFNAFASDRISLQRSLGPDTRPPECVDQKFRRCPPLATTSVIIVFHNEAWSTLLRTVYSVLHTTPAILLKEIILVDDASTEEHLKEKLEQYVKQLQVVRVVRQEERKGLITARLLGASVAQAEVLTFLDAHCECFHGWLEPLLARIAEDKTVVVSPDIVTIDLNTFEFAKPVQRGRVHSRGNFDWSLTFGWETLPPHEKQRRKDETYPIKSPTFAGGLFSISKSYFEHIGTYDNQMEIWGGENVEMSFRVWQCGGQLEIIPCSVVGHVFRTKSPHTFPKGTSVIARNQVRLAEVWMDSYKKIFYRRNLQAAKMAQEKSFGDISERLQLREQLHCHNFSWYLHNVYPEMFVPDLTPTFYGAIKNLGTNQCLDVGENNRGGKPLIMYSCHGLGGNQYFEYTTQRDLRHNIAKQLCLHVSKGALGLGSCHFTGKNSQVPKDEEWELAQDQLIRNSGSGTCLTSQDKKPAMAPCNPSDPHQLWLFV
# Molecular target: Coiled-coil domain containing 88C (human (endogenous in breast cancer cell lines)) (UniProt Q9P219)
# Assay: co-IP; anti-GALNT6 or anti-CCDC88C antibody immobilised on AminoLink plus coupling resin; cell lysates in Native lysis buffer with 1 mM PMSF incubated with the resin for 2 h; eluate analysed by immunoblotting; endogenous proteins
binder,measurement,value
B1,binding,binds
